These are yes or no findings as the source states them, for the method shown. Some entries that bind do so weakly or less than the wild type.
These substances were tested against T1, Karet PTB domain (RRS bait) (mouse) (UniProt Q8K2Y9) (assay: RRS screen in yeast, Karet PTB domain against an embryonic mouse brain library).
T1 sequence: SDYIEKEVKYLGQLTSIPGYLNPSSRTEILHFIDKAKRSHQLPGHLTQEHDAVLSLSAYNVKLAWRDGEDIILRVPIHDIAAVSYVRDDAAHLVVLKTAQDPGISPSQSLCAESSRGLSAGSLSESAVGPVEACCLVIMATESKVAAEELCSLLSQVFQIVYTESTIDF

Protein sequences, listed by entry. Tags and fused reporters are not part of them. Residues count along the entry.
UniProt Q9QYJ0, residues 1-409: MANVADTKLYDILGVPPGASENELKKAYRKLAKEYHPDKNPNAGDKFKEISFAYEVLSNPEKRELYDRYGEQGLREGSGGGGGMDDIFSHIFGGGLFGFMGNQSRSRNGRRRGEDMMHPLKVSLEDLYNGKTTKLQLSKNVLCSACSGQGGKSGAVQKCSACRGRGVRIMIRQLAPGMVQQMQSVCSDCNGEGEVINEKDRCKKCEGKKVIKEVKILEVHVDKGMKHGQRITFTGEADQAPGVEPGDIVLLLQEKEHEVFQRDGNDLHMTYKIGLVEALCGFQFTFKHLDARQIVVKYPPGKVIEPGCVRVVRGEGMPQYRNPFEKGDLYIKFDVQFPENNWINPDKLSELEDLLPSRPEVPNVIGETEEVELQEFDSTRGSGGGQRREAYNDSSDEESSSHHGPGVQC
UniProt Q61142: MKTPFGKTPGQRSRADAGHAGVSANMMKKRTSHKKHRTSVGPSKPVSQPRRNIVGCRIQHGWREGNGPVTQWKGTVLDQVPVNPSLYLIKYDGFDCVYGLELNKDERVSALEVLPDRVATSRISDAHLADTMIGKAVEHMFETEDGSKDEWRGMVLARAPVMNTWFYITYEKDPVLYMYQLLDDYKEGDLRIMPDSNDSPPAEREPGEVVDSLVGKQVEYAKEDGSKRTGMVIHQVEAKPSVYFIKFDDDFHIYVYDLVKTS
UniProt Q91ZZ3: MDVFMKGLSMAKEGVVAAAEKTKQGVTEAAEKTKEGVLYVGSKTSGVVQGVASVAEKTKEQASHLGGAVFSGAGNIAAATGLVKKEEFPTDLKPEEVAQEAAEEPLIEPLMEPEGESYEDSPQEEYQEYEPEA
UniProt P18760, residues 2-166: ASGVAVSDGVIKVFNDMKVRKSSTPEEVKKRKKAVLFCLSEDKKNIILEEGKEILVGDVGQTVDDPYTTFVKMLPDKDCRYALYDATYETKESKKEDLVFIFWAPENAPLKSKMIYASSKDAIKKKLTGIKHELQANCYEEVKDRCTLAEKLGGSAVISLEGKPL
UniProt P10126, residues 2-462: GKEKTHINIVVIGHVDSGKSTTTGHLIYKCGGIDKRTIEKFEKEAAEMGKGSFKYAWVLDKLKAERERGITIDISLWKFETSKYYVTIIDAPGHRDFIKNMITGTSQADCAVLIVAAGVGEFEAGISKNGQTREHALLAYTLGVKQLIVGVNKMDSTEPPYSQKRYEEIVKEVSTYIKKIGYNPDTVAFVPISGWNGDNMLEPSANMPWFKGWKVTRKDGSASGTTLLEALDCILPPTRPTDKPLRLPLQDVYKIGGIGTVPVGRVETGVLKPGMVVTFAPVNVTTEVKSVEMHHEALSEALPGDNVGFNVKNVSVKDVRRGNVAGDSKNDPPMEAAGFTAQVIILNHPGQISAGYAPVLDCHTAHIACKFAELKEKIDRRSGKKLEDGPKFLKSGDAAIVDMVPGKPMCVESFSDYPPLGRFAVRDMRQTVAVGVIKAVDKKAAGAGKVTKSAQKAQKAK
UniProt Q08624: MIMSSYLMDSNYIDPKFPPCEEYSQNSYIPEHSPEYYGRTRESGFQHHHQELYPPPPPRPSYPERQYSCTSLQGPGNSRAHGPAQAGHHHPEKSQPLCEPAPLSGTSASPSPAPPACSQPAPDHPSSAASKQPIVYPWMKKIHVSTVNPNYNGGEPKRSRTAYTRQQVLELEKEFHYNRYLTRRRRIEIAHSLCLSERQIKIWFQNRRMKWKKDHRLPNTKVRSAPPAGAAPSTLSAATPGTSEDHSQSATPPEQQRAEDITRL
UniProt Q99020: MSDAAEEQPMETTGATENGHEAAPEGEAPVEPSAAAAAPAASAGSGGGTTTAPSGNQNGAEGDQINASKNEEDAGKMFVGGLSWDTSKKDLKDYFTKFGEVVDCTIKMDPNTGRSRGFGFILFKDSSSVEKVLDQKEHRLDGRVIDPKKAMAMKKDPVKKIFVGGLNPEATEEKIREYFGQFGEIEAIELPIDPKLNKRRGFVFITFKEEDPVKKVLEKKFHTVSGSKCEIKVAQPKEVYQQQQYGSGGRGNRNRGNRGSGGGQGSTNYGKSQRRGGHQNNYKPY
UniProt Q9QXL1: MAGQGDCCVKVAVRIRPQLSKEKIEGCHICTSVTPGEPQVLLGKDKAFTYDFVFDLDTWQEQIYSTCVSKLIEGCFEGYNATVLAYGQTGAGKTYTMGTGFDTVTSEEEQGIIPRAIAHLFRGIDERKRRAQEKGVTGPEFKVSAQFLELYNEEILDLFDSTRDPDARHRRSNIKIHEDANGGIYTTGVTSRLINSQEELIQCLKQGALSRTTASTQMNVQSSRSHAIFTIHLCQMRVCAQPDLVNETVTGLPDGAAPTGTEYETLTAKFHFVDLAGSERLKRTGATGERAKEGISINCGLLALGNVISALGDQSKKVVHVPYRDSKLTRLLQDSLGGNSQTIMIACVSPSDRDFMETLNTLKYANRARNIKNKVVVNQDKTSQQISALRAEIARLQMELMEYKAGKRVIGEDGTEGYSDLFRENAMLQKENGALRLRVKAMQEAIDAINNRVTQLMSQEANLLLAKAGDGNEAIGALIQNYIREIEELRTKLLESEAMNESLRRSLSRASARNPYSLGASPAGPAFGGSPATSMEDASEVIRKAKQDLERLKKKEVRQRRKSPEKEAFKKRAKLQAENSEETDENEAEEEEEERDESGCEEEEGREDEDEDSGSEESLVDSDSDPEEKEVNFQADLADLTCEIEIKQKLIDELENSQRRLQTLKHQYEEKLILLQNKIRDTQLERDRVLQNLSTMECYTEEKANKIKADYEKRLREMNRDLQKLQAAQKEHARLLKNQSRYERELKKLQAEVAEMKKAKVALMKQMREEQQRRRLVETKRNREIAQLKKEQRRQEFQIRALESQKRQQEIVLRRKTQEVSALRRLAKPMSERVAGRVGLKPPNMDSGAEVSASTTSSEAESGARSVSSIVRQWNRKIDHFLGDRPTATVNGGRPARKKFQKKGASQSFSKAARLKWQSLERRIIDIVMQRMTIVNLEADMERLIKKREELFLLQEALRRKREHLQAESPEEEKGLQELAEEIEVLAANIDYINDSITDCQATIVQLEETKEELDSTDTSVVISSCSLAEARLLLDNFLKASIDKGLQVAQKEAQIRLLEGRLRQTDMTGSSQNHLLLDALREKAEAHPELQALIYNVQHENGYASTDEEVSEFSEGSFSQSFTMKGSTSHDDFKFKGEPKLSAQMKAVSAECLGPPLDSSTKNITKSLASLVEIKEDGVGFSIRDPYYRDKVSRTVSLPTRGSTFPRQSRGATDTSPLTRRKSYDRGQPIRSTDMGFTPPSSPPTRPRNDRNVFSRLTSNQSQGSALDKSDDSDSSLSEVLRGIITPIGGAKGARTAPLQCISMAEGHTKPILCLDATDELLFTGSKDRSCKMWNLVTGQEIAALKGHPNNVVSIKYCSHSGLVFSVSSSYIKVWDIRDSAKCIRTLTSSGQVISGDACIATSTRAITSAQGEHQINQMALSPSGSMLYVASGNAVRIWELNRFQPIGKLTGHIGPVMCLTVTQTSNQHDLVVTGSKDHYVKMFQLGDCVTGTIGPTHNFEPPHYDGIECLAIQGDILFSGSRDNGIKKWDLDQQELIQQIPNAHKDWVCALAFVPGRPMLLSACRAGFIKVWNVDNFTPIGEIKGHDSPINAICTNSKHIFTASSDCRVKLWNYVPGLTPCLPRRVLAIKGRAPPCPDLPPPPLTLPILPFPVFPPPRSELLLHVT
UniProt P03903, residues 9-98: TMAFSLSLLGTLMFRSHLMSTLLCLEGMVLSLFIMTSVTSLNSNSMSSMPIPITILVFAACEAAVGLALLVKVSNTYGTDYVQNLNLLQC

Substance	binding
DnaJ (Hsp40) homolog, subfamily A, member 2 (Dnaja2), mRNA (from UniProt Q9QYJ0 1-409)	binds
Spindlin (from UniProt Q61142 1-262)	binds
Cytochrome c oxidase Subunit I (COI) (from UniProt P00397 1-514)	binds
SNCB - beta synuclein (from UniProt Q91ZZ3 1-133)	binds
Cofilin 1, non-muscle (Cfl1), mRNA (from UniProt P18760 2-166)	binds
Translation elongation factor 1 alpha (from UniProt P10126 2-462)	binds
Homeo box C4 (Hoxc4), mRNA (from UniProt Q08624 1-264)	binds
Heterogeneous nuclear ribonucleoprotein A/B (from UniProt Q99020 1-285)	binds

The substances below were run against full length Karet protein (RRS bait) (mouse) (UniProt Q8K2Y9) (assay: RRS screen in yeast, whole Karet protein against an embryonic mouse brain library).

Substance	binding
Kinesin family member 21B (Kif21b), mRNA (from UniProt Q9QXL1 1-1668)	binds
NADH dehydrogenase subunit 4L (from UniProt P03903 9-98)	binds

Reference: patent US20090036380A1, “Composition And Method For Brain Tumor Therapy” (Yeda Research and Development Co., Ltd., priority 2006, published 2009)
